Source: paper PMC12208539
These are yes or no findings as the source states them, for the method shown. In cells and extracts the contact can be indirect. Some results given as binding are weak or reduced against the parent protein; the word gives no strength. For some assays here: Tags and fused reporters may be left off the sequences shown.

T1: Ppil2, endogenous in mouse erythroid cells (mouse (endogenous in bone marrow Ter119+ cells)) (UniProt Q9D787)
T1 sequence: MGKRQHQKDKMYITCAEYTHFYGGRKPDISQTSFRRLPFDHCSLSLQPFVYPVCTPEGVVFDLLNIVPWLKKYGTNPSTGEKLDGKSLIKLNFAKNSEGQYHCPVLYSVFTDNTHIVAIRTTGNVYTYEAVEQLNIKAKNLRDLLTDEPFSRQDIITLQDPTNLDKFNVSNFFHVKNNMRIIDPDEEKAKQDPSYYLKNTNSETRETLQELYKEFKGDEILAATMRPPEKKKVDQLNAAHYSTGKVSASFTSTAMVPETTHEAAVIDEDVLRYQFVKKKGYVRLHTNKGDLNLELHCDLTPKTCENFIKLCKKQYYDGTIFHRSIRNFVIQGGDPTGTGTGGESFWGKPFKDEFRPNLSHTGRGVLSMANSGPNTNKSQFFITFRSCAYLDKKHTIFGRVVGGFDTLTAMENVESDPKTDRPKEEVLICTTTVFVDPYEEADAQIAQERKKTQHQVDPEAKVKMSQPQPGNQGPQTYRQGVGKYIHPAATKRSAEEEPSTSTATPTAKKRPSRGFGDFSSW

T2: Flag-PLEK2 (UniProt Q9NYT0)
T2 sequence: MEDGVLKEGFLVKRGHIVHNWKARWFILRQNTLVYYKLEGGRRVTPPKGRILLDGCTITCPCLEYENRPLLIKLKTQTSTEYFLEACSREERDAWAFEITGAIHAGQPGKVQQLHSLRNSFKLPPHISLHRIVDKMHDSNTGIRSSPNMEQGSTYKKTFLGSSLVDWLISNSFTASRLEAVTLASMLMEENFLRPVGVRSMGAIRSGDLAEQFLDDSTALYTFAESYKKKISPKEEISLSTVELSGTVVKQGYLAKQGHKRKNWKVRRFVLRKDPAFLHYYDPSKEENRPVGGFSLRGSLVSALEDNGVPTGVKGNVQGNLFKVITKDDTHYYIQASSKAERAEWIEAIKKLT


Tests used:
[1] = biological target: T1, Ppil2, endogenous in mouse erythroid cells (mouse (endogenous in bone marrow Ter119+ cells)); experiment: co-IP; endogenous IP: PPIL2 antibody or IgG with 1 mg lysate of mouse bone marrow Ter119+ cells, 4°C overnight, protein A/G beads; Western blotting
Flag-PLEK2 = biological target: T2, Flag-PLEK2; experiment: co-IP; anti-Flag magnet beads with 1 mg lysate of transfected HEK293T cells, 4°C overnight; IP buffer 50 mM Tris-HCl pH 8.0, 150 mM NaCl, 1% Triton X-100; Western blotting

binding [1]	binding (Flag-PLEK2)	Binder
binds	–	Plek2, endogenous in mouse erythroid cells (protein, UniProt Q9WV52 1-353) MEDGVLKEGFLVKRGHIVHNWKARWFILRQNTLLYYKLEGGRRVTPPKGRIVLDGCTITCPCLEYENRPLLIKLKTRTSTEYFLEACSREERDSWAFEITGAIHAGQPGKIQQLHILKNSFKLPPHISLHRIVDKMHDTSTGIRPSPNMEQGSTYKKTFLGSSLVDWLISSNFAASRLEAVTLASMLMEENFLRPVGVRSMGAIRSGDLAEQFLDDSTALYTFAESYKKKVSSKEEISLSTMELSGTVVKQGYLSKQGHKRKNWKVRRFVLRKDPAFLHYYDPSKEENRPVGGFSLRGSLVSALEDNGVPTGVKGNVQGNLFKVITKDDTHYYIQASSKAERAEWIEAIKKLT
–	binds	PPIL2 (peptidylprolyl isomerase-like 2) in HEK293T lysate (protein, UniProt Q13356 1-520) MGKRQHQKDKMYITCAEYTHFYGGKKPDLPQTNFRRLPFDHCSLSLQPFVYPVCTPDGIVFDLLNIVPWLKKYGTNPSNGEKLDGRSLIKLNFSKNSEGKYHCPVLFTVFTNNTHIVAVRTTGNVYAYEAVEQLNIKAKNFRDLLTDEPFSRQDIITLQDPTNLDKFNVSNFYHVKNNMKIIDPDEEKAKQDPSYYLKNTNAETRETLQELYKEFKGDEILAATMKAPEKKKVDKLNAAHYSTGKVSASFTSTAMVPETTHEAAAIDEDVLRYQFVKKKGYVRLHTNKGDLNLELHCDLTPKTCENFIRLCKKHYYDGTIFHRSIRNFVIQGGDPTGTGTGGESYWGKPFKDEFRPNLSHTGRGILSMANSGPNSNRSQFFITFRSCAYLDKKHTIFGRVVGGFDVLTAMENVESDPKTDRPKEEIRIDATTVFVDPYEEADAQIAQERKTQLKVAPETKVKSSQPQAGSQGPQTFRQGVGKYINPAATKRAAEEEPSTSATVPMSKKKPSRGFGDFSSW
